{
  "source": "patent US20250177381A1",
  "about": "(SHANGHAI YONSUN BIOTECHNOLOGY CO., LTD., priority 2022, published 2025)",
  "origin": "cited, not measured here",
  "conditions": "provided by patent CN105218484A; cited from earlier work",
  "note": "Some results were stated once for a whole list of compounds, not compound by compound.",
  "data": [
    {"substance": "cariprazine tartrate", "values": [
      {"measurement": "Solubility", "result": "greater than 3 mg/mL"}
    ]}
  ]
}
